Experimental data published in patent US9932300B2, “N,N′-diarylurea compounds and N,N′-diarylthiourea compounds as inhibitors of translation initiation” (President and Fellows of Harvard College, priority 2009, dated 2018).
For at least one compound, name, drawing or mass did not settle the structure.

Tested on: eIF2-GTP-Met-tRNAi ternary complex
Assay: Ternary complex assay (dual luciferase, firefly/renilla ratio) in stable KLN-tTA/pBISA-DL(ATF-4) cells; HTS and hit confirmation
Type: cell-based, mouse
Settings: anti-cancer agents at 20 μM

C[C@H](N)C(=O)NCC(=O)N[C@H]1CSSC[C@@H](C(=O)O)NC(=O)[C@H](CO)NC(=O)[C@H]([C@@H](C)O)NC(=O)[C@H](Cc2ccccc2)NC(=O)[C@H]([C@@H](C)O)NC(=O)[C@H](CCCCN)NC(=O)[C@H](Cc2c[nH]c3ccccc23)NC(=O)[C@H](Cc2ccccc2)NC(=O)[C@H](Cc2ccccc2)NC(=O)[C@H](CC(N)=O)NC(=O)[C@H](CCCCN)NC1=O [Somatostatin]
Relative F-luc/R-luc Ratio (+/− SEM): 0.9 + 0.2
